Assay results: patent publication US20020123042A1
Results are given in words; binding and its absence hold for the method and conditions named. In cells and extracts the contact can be indirect. Some entries that bind do so weakly or less than the wild type.

The chains behind the UniProt entries cited, without tags or fusion partners. Where a name states a change or a piece, a line headed by the entry shows the natural chain unless it says otherwise.
UniProt O43684: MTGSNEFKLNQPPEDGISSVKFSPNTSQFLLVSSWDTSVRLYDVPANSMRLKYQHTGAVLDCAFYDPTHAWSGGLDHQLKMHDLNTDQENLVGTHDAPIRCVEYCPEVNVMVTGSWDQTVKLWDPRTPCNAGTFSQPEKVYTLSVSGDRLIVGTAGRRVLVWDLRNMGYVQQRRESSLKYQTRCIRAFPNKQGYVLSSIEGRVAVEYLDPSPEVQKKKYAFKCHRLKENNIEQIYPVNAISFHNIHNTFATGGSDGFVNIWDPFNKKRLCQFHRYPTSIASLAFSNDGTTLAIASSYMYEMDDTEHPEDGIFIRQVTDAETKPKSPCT

Target: epitope tagged FLAG-huBUB3 variant protein (plasmid p221-2) (human) (UniProt O43684)
Assay: anti-FLAG co-immunoprecipitation of 35S-labeled in vitro translated proteins, 2 M NaCl washes

- binding: binds
B1: huBUB1 lysine-821 to alanine mutant (plasmid p403-1) (enzyme)
chain: MDTPENVLQMLEAHMQSYKGNDPLGEWERYIQWVEENFPENKEYLITLLEHLMKEFLDKKKYHNDPRFISYCLKFAEYNSDLHQFFEFLYNHGIGTLSSPLYIAWAGHLEAQGELQHASAVLQRGIQNQAEPREFLQQQYRLFQTRLTETHLPAQARTSEPLHNVQVLNQMITSKSNPGNNMACISKNQGSELSGVISSACDKESNMERRVITISKSEYSVHSSLASKVDVEQVVMYCKEKLIRGESEFSFEELRAQKYNQRRKHEQWVNEDRHYMKRKEANAFEEQLLKQKMDELHKKLHQVVETSHEDLPASQERSEVNPARMGPSVGSQQELRAPCLPVTYQQTPVNMEKNPREAPPVVPPLANAISAALVSPATSQSIAPPVPLKAQTVTDSMFAVASKDAGCVNKSTHEFKPQSGAEIKEGCETHKVANTSSFHTTPNTSLGMVQATPSKVQPSPTVHTKEALGFIMNMFQAPTLPDISDDKDEWQSLDQNEDAFEAQFQKNVRSSGAWGVNKIISSLSSAFHVFEDGNKENYGLPQPKNKPTGARTFGERSVSRLPSKPKEEVPHAEEFLDDSTVWGIRCNKTLAPSPKSPGDFTSAAQLASTPFHKLPVESVHILEDKENVVAKQCTQATLDSCEENMVVPSRDGKFSPIQEKSPKQALSSHMYSASLLRLSQPAAGGVLTCEAELGVEACRLTDTDAAIAEDPPDAIAGLQAEWMQMSSLGTVDAPNFIVGNPWDDKLIFKLLSGLSKPVSSYPNTFEWQCKLPAIKPKTEFQLGSKLVYVHHLLGEGAFAQVYEATQGDLNDAKNKQKFVLAVQKPANPWEFYIGTQLMERLKPSMQHMFMKFYSAHLFQNGSVLVGELYSYGTLLNAINLYKNTPEKVMPQGLVISFAMRMLYMIEQVHDCEIIHGDIKPDNFILGNGFLEQDDEDDLSAGLALIDLGQSIDMKLFPKGTIFTAKCETSGFQCVEMLSNKPWNYQIDYFGVAATVYCMLFGTYMKVKNEGGECKPEGLFRRLPHLDMWNEFFHVMLNIPDCHHLPSLDLLRQKLKKVFQQHYTNKIRALRNRLIVLLLECKRSRK
